Reference: US20140121213A1, “VOLTAGE-GATED SODIUM CHANNEL BLOCKERS” (priority 2011, published 2014)
Structures can show the parent of a compound that is named as a salt. Some results were stated once for a whole list of compounds, not compound by compound. At least one structure is not confirmed: it was looked up by name or label, or the drawing left a doubt.

Sequences of proteins named here, by UniProt entry; tags and fusion partners are left off.
UniProt Q9NY46, whole entry: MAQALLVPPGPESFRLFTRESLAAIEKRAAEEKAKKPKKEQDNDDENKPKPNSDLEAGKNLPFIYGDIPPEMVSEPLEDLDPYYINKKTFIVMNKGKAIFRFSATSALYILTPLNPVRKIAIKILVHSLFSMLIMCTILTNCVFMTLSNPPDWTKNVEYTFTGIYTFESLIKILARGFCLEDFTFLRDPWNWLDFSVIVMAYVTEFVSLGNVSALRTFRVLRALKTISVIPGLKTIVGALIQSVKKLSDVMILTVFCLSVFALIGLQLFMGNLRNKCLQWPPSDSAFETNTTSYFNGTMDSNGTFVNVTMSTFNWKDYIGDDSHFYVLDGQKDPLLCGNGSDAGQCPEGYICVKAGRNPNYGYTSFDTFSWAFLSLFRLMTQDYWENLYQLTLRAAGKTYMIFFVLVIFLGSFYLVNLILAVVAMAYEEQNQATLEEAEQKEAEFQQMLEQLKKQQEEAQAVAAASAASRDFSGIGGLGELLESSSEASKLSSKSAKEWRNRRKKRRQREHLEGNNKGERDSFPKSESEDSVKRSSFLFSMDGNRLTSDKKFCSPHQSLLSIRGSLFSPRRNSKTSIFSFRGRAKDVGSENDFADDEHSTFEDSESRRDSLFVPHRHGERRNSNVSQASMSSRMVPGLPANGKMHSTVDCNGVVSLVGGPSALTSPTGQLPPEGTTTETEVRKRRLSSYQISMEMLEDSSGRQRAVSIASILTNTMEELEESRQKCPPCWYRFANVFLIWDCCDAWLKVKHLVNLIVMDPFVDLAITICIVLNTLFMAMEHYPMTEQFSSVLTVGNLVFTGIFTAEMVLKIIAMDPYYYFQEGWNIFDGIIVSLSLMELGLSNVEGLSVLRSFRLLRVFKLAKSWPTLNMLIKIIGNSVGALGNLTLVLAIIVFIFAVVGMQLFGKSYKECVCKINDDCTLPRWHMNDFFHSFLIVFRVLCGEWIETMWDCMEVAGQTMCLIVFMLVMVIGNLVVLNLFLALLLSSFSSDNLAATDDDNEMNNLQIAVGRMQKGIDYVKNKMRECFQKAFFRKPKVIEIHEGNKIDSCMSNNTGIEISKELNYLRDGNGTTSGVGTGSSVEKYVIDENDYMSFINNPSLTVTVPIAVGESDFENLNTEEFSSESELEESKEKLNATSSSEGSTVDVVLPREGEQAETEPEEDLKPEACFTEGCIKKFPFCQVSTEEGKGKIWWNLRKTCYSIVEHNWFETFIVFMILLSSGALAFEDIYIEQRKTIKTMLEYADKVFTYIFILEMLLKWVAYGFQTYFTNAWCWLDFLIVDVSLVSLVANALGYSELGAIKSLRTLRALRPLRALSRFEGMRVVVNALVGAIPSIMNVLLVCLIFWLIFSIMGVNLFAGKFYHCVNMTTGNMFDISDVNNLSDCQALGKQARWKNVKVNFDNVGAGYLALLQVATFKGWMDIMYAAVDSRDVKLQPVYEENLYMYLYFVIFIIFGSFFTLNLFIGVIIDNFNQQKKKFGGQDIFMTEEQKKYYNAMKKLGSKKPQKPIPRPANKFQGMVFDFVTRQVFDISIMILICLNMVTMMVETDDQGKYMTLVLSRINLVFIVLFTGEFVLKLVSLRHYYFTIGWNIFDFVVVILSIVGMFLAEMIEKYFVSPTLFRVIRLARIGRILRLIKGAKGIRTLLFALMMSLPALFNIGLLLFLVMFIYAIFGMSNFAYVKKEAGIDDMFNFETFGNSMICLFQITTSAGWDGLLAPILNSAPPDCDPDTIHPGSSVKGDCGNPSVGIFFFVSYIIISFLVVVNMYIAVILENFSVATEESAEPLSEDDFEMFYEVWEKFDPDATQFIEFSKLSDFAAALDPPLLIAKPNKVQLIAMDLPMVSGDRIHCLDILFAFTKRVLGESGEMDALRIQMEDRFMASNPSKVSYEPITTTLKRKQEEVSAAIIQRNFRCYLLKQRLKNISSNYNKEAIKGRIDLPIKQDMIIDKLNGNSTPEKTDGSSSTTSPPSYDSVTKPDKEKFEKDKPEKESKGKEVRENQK
UniProt Q15858, whole entry: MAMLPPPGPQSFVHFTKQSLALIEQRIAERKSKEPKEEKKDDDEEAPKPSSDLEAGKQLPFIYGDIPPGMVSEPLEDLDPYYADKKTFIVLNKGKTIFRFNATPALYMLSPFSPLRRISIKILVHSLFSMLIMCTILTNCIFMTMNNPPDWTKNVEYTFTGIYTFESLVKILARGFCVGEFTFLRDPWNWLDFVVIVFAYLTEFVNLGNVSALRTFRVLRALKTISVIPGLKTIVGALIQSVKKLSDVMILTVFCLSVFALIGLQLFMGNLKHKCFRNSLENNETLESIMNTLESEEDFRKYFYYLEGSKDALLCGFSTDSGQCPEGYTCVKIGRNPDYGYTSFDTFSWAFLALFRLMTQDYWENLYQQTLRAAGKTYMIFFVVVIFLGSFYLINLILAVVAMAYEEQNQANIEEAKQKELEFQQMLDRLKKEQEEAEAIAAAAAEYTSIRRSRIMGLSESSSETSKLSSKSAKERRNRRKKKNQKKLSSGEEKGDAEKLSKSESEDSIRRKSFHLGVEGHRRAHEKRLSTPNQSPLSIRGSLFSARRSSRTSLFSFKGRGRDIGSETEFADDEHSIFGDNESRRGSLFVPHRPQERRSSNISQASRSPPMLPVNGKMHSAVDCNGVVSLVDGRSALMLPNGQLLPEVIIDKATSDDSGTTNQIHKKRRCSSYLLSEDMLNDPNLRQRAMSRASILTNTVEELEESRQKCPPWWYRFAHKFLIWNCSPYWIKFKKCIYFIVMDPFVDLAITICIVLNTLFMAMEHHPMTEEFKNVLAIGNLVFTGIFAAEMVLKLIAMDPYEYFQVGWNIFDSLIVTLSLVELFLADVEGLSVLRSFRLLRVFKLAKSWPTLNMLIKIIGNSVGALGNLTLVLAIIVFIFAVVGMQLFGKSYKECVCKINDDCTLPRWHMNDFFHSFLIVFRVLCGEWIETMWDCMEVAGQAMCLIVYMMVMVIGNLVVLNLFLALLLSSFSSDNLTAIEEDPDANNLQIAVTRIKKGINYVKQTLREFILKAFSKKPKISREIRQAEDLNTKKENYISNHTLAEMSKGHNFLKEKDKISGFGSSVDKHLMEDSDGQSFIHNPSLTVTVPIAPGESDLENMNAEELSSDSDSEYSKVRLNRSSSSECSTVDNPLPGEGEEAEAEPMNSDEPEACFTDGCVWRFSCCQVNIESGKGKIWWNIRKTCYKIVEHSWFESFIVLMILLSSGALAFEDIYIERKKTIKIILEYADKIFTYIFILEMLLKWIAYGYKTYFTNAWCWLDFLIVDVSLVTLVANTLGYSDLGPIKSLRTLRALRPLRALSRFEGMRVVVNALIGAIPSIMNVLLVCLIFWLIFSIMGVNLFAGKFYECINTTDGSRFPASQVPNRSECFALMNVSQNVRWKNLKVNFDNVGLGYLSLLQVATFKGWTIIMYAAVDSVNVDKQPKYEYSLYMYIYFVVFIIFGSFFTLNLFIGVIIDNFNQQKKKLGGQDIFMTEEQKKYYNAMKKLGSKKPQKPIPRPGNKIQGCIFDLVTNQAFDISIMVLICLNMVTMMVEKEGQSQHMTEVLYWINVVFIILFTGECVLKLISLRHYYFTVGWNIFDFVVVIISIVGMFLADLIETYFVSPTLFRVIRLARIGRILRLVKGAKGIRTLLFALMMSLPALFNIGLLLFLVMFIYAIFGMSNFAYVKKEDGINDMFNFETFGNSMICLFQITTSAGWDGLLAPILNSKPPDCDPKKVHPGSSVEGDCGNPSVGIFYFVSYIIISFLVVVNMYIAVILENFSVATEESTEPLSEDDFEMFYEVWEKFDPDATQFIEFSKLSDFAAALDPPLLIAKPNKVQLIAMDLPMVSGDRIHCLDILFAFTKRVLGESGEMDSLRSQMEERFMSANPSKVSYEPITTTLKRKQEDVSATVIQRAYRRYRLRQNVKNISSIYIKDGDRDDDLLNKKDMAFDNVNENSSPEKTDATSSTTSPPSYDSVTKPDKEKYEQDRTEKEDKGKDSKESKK

What follows are compounds tested against T1, hNaV1.3 channels (Homo sapiens, UniProt Q9NY46) (assay: Use-dependent inhibition of NaV1.3 currents, IonWorks Quattro planar array electrophysiology). Conditions: use-dependent; concentration producing 15% inhibition, 10th versus 1st depolarizing pulse, 10 Hz.
T1 construct: expressed in transfected cells
Type: cell-based
With `CC(C)OC(=O)c1cccnc1N1CCN(Cc2ccc(CNC(=O)c3c(F)cccc3Cl)cc2)CC1` [Example 521, 1-methylethyl2-(4-{[4-({[(2-chloro-6-fluorophenyl)carbonyl]amino}methyl)phenyl]methyl}-1-piperazinyl)-3-pyridinecarboxylate] the “pUD15 against NaV1.3” value was 5-5.99.
`CCN(Cc1cccc(CN(CC)[C@@H]2CCN(c3ncccc3C(=O)OC(C)C)C2)c1)[C@@H]1CCN(c2ncccc2C(=O)OC(C)C)C1` [Example 530, Bis(1-methylethyl) 2,2′-{benzene-1,3-diylbis[methanediyl(ethylimino) (3R)-3,1-pyrrolidinediyl]}di(3-pyridinecarboxylate)] was tested, and the “pUD15 against NaV1.3” value was 5-5.99.
In the case of `CCN(Cc1ccc(CN(CC)[C@H]2CCN(c3ncccc3C(=O)OC(C)C)C2)cc1)[C@@H]1CCN(c2ncccc2C(=O)OC(C)C)C1` [Example 531, 1-Methylethyl 2-[(3R)-3-(ethyl{[4-({ethyl[(3S)-1-(3-{[(1-methylethyl)oxy]carbonyl}-2-pyridinyl)-3-pyrrolidinyl]amino}methyl)phenyl]methyl}amino)-1-pyrrolidinyl]-3-pyridinecarboxylate], the “pUD15 against NaV1.3” value is reported as 5-5.99.
`CCN(Cc1ccc(CN(CC)[C@H]2CCN(c3ncccc3C(=O)OC(C)C)C2)cc1)[C@H]1CCN(c2ncccc2C(=O)OC(C)C)C1` [Example 537, Bis(1-methylethyl) 2,2′-{benzene-1,4-diylbis[methanediyl(ethylimino) (3S)-3,1-pyrrolidinediyl]}di(3-pyridinecarboxylate)] was tested, and the “pUD15 against NaV1.3” value was 5-5.99.

Each compound was assayed against NaV 1.7 (Homo sapiens, UniProt Q15858) (assay: Use-dependent inhibition of NaV1.7 currents, IonWorks Quattro planar array electrophysiology). Conditions: use-dependent; concentration producing 15% inhibition, 10th versus 1st depolarizing pulse, 10 Hz.
Type: cell-based
In the case of `CCc1ccc(CN2CCN(c3ncccc3C(=O)OC(C)C)CC2)cc1` [Example 3, 1-Methylethyl 2-{4-[(4-ethylphenyl)methyl]-1-piperazinyl}-3-pyridinecarboxylate], the “pUD15 against NaV1.7” value is reported as 5-5.99.
`CCc1ccc(CN(CC)[C@H]2CCN(c3ncccc3C(=O)OC(C)C)C2)s1` [Example 17, 1-Methylethyl 2-((3S)-3-{ethyl[(5-ethyl-2-thienyl)methyl]amino}-1-pyrrolidinyl)-3-pyridinecarboxylate] was tested, and the “pUD15 against NaV1.7” value was 5-5.99.
`COc1cccc(COc2cccc(CN3CCN(c4ncccc4C(=O)OC(C)C)CC3)c2)c1` [Example 22, 1-Methylethyl 2-(4-{[3-({[3-(methyloxy)phenyl]methyl}oxy)phenyl]methyl}-1-piperazinyl)-3-pyridinecarboxylate hydrochloride] was tested, and the “pUD15 against NaV1.7” value was 5-5.99.
In the case of `CC(C)OC(=O)c1cccnc1N1CCN(Cc2ccc(Cc3ccccc3)cc2)CC1` [Example 27, 1-Methylethyl 2-(4-{[4-(phenylmethyl)phenyl]methyl}-1-piperazinyl)-3 pyridinecarboxylate hydrochloride], the “pUD15 against NaV1.7” value is reported as 5-5.99.
`CC(C)OC(=O)c1cccnc1N1CCN(Cc2cccc(Sc3ccccc3)c2)CC1` [Example 35, 1-Methylethyl 2-(4-{[3-(phenylthio)phenyl]methyl}-1-piperazinyl)-3-pyridinecarboxylate hydrochloride] was tested, and the “pUD15 against NaV1.7” value was 4-4.99.
For `CCCCOc1cccc(CN(CC)[C@@H]2CCN(c3ncccc3C(=O)OC(C)C)C2)c1` [Example 58], the “pUD15 against NaV1.7” value was 5-5.99.
In the case of `CCN(Cc1ccc(OCc2ccccc2)cc1)[C@@H]1CCN(c2ncccc2C(=O)OC(C)C)C1` [Example 59], the “pUD15 against NaV1.7” value is reported as 5-5.99.
`CC(C)OC(=O)c1cccnc1N1CCN(Cc2cccc(OCc3ccc(F)cc3)c2)CC1` [Example 96] was tested, and the “pUD15 against NaV1.7” value was 5-5.99.
For `CC(C)OC(=O)c1c(Oc2ccccc2)ccnc1N1CCN(Cc2ccccc2)CC1` [Example 98, 1-methylethyl 2-[4-(phenylmethyl)-1-piperazinyl]-4-(phenyloxy)-3-pyridinecarboxylate], the “pUD15 against NaV1.7” value was 5-5.99.
`CC(C)OC(=O)c1cccnc1N1CCN(Cc2cccc(Nc3ccccc3C(F)(F)F)c2)CC1` [Example 112, 1-methylethyl 2-{4-[(3-{[2-(trifluoromethyl)phenyl]amino}phenyl)methyl]-1-piperazinyl}-3-pyridinecarboxylate] was tested, and the “pUD15 against NaV1.7” value was 5-5.99.
With `Cc1ccccc1Nc1cccc(CN2CCN(c3ncccc3C(=O)OC(C)C)CC2)c1` [Example 114] the “pUD15 against NaV1.7” value was 5-5.99.
For `CCOC(=O)c1cccc(Nc2ccc(CN3CCN(c4ncccc4C(=O)OC(C)C)CC3)cc2)c1` [Example 119], the “pUD15 against NaV1.7” value was 5-5.99.
For `CC(C)OC(=O)c1c(-c2ccccc2)ccnc1N1CCN(Cc2ccccc2C#N)CC1` [Example 136], the “pUD15 against NaV1.7” value was 4-4.99.
`CC(C)OC(=O)c1c(-c2ccccc2)ccnc1N1CCN(Cc2ccc(OC(F)(F)F)cc2)CC1` [Example 137] was tested, and the “pUD15 against NaV1.7” value was 4-4.99.
In the case of `Cc1ccccc1CN1CCN(c2nccc(-c3ccccc3)c2C(=O)OC(C)C)CC1` [Example 139], the “pUD15 against NaV1.7” value is reported as 5-5.99.
With `CC(C)OC(=O)c1c(-c2ccccc2)ccnc1N1CCN(Cc2ccccc2-c2ccccc2)CC1` [Example 142] the “pUD15 against NaV1.7” value was 4-4.99.
`CCN(Cc1ccco1)[C@@H]1CCN(c2nccc(-c3ccccc3)c2C(=O)OC(C)C)C1` [Example 148, 1-methylethyl 2-{(3R)-3-[ethyl(2-furanylmethyl)amino]-1-pyrrolidinyl}-4-phenyl-3-pyridinecarboxylate] was tested, and the “pUD15 against NaV1.7” value was 5-5.99.
With `CCN(Cc1ccc(OCc2ccc(F)cc2)c(OC)c1)[C@H]1CCN(c2ncccc2C(=O)OC(C)C)C1` [Example 172] the “pUD15 against NaV1.7” value was 4-4.99.
In the case of `CCN(Cc1ccccc1Oc1ccc(F)cc1)[C@H]1CCN(c2ncccc2C(=O)OC(C)C)C1` [Example 175], the “pUD15 against NaV1.7” value is reported as 5-5.99.
For `CCN(Cc1ccc(OCc2ccccc2)c(OC)c1)[C@H]1CCN(c2ncccc2C(=O)OC(C)C)C1` [Example 179], the “pUD15 against NaV1.7” value was 5-5.99.
For `CCN(Cc1ccc(OCc2ccccc2)cc1OC)[C@H]1CCN(c2ncccc2C(=O)OC(C)C)C1` [Example 180], the “pUD15 against NaV1.7” value was 5-5.99.
With `COc1cccc(OCc2ccc(CN3CCN(c4ncccc4C(=O)OC(C)C)CC3)cc2)c1` [Example 188, 1-methylethyl 2-(4-{[4-({[3-(methyloxy)phenyl]oxy}methyl)phenyl]ynethyl}-1-piperazinyl)-3-pyridinecarboxylate] the “pUD15 against NaV1.7” value was 5-5.99.
With `COc1cccc(OCc2ccc(CN3CCN(c4ncccc4C(=O)OC(C)C)CC3)cc2)c1OC` [Example 195, 1-methylethyl 2-(4-{[4-({[2,3-bis(methyloxy)phenyl]oxy}methyl)phenyl]methyl}-1-piperazinyl)-3-pyridinecarboxylate] the “pUD15 against NaV1.7” value was 5-5.99.
`COc1cc(OC)cc(OCc2ccc(CN3CCN(c4ncccc4C(=O)OC(C)C)CC3)cc2)c1` [Example 197, 1-methylethyl 2-(4-{[4-({[3,5-bis(methyloxy)phenyl]oxy}methyl)phenyl]methyl}-1-piperazinyl)-3-pyridinecarboxylate] was tested, and the “pUD15 against NaV1.7” value was 5-5.99.
In the case of `CC(C)OC(=O)c1cccnc1N1CCN(Cc2ccc(COc3ccc(F)cc3)cc2)CC1` [Example 203, 1-methylethyl 2-{4-[(4-{[(4-fluorophenyl)oxy]methyl}phenyl)methyl]-1-piperazinyl}-3-pyridinecarboxylate], the “pUD15 against NaV1.7” value is reported as 5-5.99.
In the case of `CCN(Cc1ccc(CN2CCN(c3ncccc3C(=O)OC(C)C)CC2)cc1)Cc1ccoc1` [Example 222, 1-methylethyl 2-{4-[(4-{[ethyl(3-furanylmethyl)amino]methyl}phenyl)methyl]-1-piperazinyl}-3-pyridinecarboxylate], the “pUD15 against NaV1.7” value is reported as 5-5.99.
In the case of `CCOc1cccc(CN(CC)Cc2ccc(CN3CCN(c4ncccc4C(=O)OC(C)C)CC3)cc2)c1` [Example 223, 1-methylethyl 2-[4-({4-[(ethyl{[3-(ethyloxy)phenyl]methyl}amino)methyl]phenyl}methyl)-1-piperazinyl]-3-pyridinecarboxylate], the “pUD15 against NaV1.7” value is reported as 5-5.99.
`CCN(Cc1ccc(CN2CCN(c3ncccc3C(=O)OC(C)C)CC2)cc1)Cc1ccco1` [Example 228, 1-methylethyl 2-{4-[(4-{[ethyl(2-furanylmethyl)amino]methyl}phenyl)methyl]-1-piperazinyl}-3-pyridinecarboxylate] was tested, and the “pUD15 against NaV1.7” value was 5-5.99.
For `CCN(Cc1ccc(CN2CCN(c3ncccc3C(=O)OC(C)C)CC2)cc1)Cc1cccs1` [Example 229, 1-methylethyl 2-{4-[(4-{[ethyl(2-thienylmethyl)amino]methyl}phenyl)methyl]-1-piperazinyl}-3-pyridinecarboxylate], the “pUD15 against NaV1.7” value was 5-5.99.
For `Cc1ccnc(N2CCN(Cc3ccccc3C#N)CC2)c1C(=O)OC(C)C` [Example 233, 1-methylethyl 2-{4-[(2-cyanophenyl)methyl]-1-piperazinyl}-4-methyl-3-pyridinecarboxylate], the “pUD15 against NaV1.7” value was 5-5.99.
For `Cc1ccnc(N2CCN(Cc3cccc(F)c3)CC2)c1C(=O)OC(C)C` [Example 235, 1-methylethyl 2-{4-[(3-fluorophenyl)methyl]-1-piperazinyl}-4-methyl-3-pyridinecarboxylate], the “pUD15 against NaV1.7” value was 5-5.99.
`Cc1ccc(CN2CCN(c3nccc(C)c3C(=O)OC(C)C)CC2)s1` [Example 238, 1-methylethyl 4-methyl-2-{4-[(5-methyl-2-thienyl)methyl]-1-piperazinyl}-3-pyridinecarboxylate] was tested, and the “pUD15 against NaV1.7” value was 5-5.99.
In the case of `Cc1ccnc(N2CCN(Cc3ccc(C#N)cc3)CC2)c1C(=O)OC(C)C` [Example 239, 1-methylethyl 2-{4-[(4-cyanophenyl)methyl]-1-piperazinyl}-4-methyl-3-pyridinecarboxylate], the “pUD15 against NaV1.7” value is reported as 5-5.99.
In the case of `Cc1ccnc(N2CCN(Cc3cccc(C#N)c3)CC2)c1C(=O)OC(C)C` [Example 240, 1-methylethyl 2-{4-[(3-cyanophenyl)methyl]-1-piperazinyl}-4-methyl-3-pyridinecarboxylate], the “pUD15 against NaV1.7” value is reported as 4-4.99.
In the case of `Cc1ccnc(N2CCN(Cc3ccc(F)c(C#N)c3)CC2)c1C(=O)OC(C)C` [Example 241, 1-methylethyl 2-{4-[(3-cyano-4-fluorophenyl)methyl]-1-piperazinyl}-4-methyl-3-pyridinecarboxylate], the “pUD15 against NaV1.7” value is reported as 4-4.99.
With `Cc1ccnc(N2CCN(Cc3cn(C)nc3C)CC2)c1C(=O)OC(C)C` [Example 242, 1-methylethyl 2-{4-[(1,3-dimethyl-1H-pyrazol-4-yl)methyl]-1-piperazinyl}-4-methyl-3-pyridinecarboxylate] the “pUD15 against NaV1.7” value was 4-4.99.
